Measurements as given in patent publication WO2001072771A2.
Results are given in words; binding and its absence hold for the method and conditions named. Some entries that bind do so weakly or less than the wild type.

Sequences of proteins named here, by UniProt entry; tags and fusion partners are left off. A change or cut given only in a name is not applied to a line headed by its entry. Residues count along the entry.
UniProt P08069: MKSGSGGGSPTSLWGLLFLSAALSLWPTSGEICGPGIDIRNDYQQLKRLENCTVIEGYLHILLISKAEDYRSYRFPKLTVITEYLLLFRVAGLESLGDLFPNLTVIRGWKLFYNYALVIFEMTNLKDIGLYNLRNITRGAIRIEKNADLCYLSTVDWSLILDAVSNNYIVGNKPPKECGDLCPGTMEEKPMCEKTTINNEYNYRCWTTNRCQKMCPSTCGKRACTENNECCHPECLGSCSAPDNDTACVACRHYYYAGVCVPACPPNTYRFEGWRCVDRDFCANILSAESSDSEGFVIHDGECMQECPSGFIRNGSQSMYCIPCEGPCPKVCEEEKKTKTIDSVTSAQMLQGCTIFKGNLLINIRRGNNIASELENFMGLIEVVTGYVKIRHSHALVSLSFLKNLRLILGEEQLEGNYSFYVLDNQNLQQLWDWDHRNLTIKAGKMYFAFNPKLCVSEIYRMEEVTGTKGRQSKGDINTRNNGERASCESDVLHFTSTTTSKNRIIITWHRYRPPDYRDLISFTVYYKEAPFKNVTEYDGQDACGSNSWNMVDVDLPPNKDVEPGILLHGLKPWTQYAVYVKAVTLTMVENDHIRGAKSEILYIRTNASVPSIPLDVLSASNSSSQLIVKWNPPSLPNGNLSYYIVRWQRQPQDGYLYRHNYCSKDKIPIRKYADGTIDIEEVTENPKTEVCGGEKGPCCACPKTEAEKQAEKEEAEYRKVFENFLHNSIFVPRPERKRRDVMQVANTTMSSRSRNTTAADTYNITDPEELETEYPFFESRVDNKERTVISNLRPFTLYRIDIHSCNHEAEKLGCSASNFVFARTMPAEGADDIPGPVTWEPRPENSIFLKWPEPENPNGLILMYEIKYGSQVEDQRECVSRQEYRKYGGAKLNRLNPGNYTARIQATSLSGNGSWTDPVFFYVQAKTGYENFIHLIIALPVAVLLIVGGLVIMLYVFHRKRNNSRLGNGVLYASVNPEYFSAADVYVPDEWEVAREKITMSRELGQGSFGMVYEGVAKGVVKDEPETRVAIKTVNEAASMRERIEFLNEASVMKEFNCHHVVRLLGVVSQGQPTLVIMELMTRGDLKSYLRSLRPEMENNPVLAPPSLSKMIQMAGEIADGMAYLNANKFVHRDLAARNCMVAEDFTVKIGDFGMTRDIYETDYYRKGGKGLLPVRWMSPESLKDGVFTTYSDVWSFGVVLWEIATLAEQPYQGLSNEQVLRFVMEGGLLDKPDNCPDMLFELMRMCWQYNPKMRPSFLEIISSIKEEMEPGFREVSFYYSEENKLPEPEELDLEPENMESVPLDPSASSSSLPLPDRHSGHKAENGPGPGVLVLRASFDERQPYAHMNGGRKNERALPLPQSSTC
sIGF-1R-Fc: residues 31-935 of P08069
soluble IGF-1 receptor: residues 31-932 of P08069
UniProt P06213: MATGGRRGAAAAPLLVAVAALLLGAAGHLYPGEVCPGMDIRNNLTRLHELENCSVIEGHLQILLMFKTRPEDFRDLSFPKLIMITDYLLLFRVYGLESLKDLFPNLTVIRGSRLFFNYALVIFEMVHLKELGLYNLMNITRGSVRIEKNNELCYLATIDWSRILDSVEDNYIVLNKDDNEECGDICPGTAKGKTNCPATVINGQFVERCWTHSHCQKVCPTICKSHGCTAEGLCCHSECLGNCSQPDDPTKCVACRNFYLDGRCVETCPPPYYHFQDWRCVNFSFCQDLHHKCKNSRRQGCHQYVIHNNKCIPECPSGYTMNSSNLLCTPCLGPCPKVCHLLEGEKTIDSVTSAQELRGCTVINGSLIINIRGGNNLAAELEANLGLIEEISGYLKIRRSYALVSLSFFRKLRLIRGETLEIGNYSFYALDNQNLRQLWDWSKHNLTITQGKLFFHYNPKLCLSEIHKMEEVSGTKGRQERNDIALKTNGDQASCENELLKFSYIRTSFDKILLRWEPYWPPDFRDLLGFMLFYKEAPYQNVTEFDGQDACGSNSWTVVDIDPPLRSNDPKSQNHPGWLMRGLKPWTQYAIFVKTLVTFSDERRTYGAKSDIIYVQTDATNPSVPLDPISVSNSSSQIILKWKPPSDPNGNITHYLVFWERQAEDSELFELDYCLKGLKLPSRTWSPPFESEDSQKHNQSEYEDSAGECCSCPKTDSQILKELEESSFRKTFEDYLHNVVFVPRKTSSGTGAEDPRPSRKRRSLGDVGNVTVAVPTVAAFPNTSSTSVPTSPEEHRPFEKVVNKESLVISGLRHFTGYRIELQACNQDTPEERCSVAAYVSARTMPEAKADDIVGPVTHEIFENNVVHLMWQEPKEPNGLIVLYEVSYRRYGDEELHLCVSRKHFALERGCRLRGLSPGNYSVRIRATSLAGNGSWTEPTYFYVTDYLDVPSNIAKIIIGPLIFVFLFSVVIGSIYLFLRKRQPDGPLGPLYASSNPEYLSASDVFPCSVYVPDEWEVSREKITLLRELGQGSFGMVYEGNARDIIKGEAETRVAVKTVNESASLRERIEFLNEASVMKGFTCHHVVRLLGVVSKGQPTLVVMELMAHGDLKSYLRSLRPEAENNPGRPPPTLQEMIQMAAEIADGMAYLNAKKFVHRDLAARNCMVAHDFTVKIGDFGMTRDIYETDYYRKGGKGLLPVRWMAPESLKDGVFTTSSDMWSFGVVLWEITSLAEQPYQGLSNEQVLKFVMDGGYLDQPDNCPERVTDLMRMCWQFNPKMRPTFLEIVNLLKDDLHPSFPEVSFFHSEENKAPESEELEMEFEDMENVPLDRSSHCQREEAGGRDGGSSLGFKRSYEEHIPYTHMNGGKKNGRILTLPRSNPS
human insulin receptor (HIR): residues 28-1382 of P06213
soluble human insulin receptor (IR-Fc): residues 28-956 of P06213

Assays:
[1] = target: soluble IGF-1 receptor (human) (UniProt P08069); assay: ELISA
[2] = target: soluble human insulin receptor (IR-Fc) (human) (UniProt P06213); assay: heterogeneous time-resolved fluorescence assay
[3] = target: soluble IGF-1 receptor (human) (UniProt P08069); assay: heterogeneous time-resolved fluorescence assay
[4] = target: soluble human insulin receptor (IR-Fc) (human) (UniProt P06213); assay: competition phage ELISA
[5] = target: soluble human insulin receptor (IR-Fc) (human) (UniProt P06213); assay: phage ELISA
[6] = target: human insulin receptor (HIR) (human) (UniProt P06213); assay: displacement of 125I-insulin from HIR
[7] = target: soluble human insulin receptor (IR-Fc) (human) (UniProt P06213); assay: phage ELISA, relative binding to sIR
[8] = target: sIGF-1R-Fc (UniProt P08069); assay: phage ELISA, relative binding to sIGF-1R-Fc
[9] = target: soluble IGF-1 receptor (human) (UniProt P08069); assay: time-resolved FRET, Eu-IGF-1R with b-20E2 and SA-APC

LCQSWGVRIGWLAGLCP [JBA5 phage]
binding [1]: binds

DYKDCWARPCGDAANFYDWFVQQASKK [C1 peptide]
binding [2]: binds
binding [3]: binds
binding [4]: binds

WNTVDPFYHKLSELLREKK [B6 peptide]
binding [4]: binds

VTFTSAVFHENFYDWFVRQVS [H2 phage]
binding [5]: binds

DYKDVTFTSAVFHENFYDWFVRQVSKK [H2 peptide]
binding [4]: binds

HLCVLEELFWGASLFGYCSG (biotin on the side chain of the C-terminal lysine) [D124]
binding [6]: binds

APTFYAWFNQQTGGGS [IM445 (Δ-12-3 #6)]
binding [7]: binds
binding [8]: binds

SFYEAIHQLLGVGGGS [IM447 (Δ-12-3 #45)]
binding [7]: binds
binding [8]: binds

NSFYEALRMLSSGGGS [IM460 (Δ-12-3* #76)]
binding [7]: binds

SLNFYDALQLLAGGGS [IM453 (Δ-12-3 #112)]
binding [7]: binds
binding [8]: binds

SSNFYQALMLLSGGGS [IM466 (Δ-12-3* #146)]
binding [7]: binds
binding [8]: binds

SDGFYNAIELLSGGGS [IM448 (Δ-12-3 #40)]
binding [7]: binds

HETFYSMIRSLAGGGS [IM446 (Δ-12-3 #24)]
binding [7]: binds
binding [8]: binds

HDPFYSMMKSLLGGGS [IM455 (Δ-12-3* #10)]
binding [7]: binds
binding [8]: binds

WSDFYSYFQGLDGGGS [IM465 (Δ-12-3 #193)]
binding [7]: binds

HPPLEHLKAFLLGGGS [IM452 (Δ-12-3 #23)]
binding [5]: binds
binding [7]: binds

HPPLSELKLFLIGGGS [IM451 (Δ-12-3 #34)]
binding [5]: binds
binding [7]: binds

HPSLSDMRWILLGGGS [IM459 (Δ-12-3* #60)]
binding [5]: binds
binding [7]: binds

HPTSKEIYAKLLGGGS [IM449 (Δ-12-3 #43)]
binding [5]: binds
binding [7]: binds

HPSTNQMLMKLFGGGS [IM450 (Δ-12-3 #28)]
binding [5]: binds

DYKDFYDAIDQLVRGSARAGGTRDKK (ε-biotin on the C-terminal lysine) [biotinylated 20E2 peptide]
binding [9]: binds
